Experimental data reported in PMC7526454 (JCI Insight, 2020).
Results are given in words; binding and its absence hold for the method and conditions named. Binding seen in cells or lysates may run through a third protein. Some entries that bind do so weakly or less than the wild type.

Protein sequences, listed by entry. Tags and fused reporters are not part of them. Residues count along the entry.
UniProt P43220, residues 24-463: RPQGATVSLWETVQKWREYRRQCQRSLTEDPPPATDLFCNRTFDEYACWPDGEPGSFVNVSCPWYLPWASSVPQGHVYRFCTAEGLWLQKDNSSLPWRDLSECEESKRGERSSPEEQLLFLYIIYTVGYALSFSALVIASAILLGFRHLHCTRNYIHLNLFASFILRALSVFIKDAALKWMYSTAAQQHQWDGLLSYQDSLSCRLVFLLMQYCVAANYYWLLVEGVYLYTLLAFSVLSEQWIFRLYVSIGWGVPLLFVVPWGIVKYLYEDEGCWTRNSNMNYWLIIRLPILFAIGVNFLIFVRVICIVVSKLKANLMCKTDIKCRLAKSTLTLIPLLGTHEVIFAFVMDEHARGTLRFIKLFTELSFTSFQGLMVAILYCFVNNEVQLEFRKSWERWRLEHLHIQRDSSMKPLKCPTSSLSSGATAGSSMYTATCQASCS
UniProt O35659, residues 22-463: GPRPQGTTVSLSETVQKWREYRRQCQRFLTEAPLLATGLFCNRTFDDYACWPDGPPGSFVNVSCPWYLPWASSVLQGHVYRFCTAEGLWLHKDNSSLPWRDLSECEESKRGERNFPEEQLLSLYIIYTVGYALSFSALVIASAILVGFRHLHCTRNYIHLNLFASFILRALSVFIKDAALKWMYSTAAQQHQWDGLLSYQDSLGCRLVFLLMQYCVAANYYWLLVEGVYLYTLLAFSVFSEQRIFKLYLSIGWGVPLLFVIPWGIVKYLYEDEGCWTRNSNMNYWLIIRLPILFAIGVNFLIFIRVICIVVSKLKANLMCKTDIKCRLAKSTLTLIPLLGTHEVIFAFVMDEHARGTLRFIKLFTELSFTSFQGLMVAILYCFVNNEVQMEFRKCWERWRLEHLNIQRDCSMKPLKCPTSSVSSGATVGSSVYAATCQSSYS
UniProt P32121: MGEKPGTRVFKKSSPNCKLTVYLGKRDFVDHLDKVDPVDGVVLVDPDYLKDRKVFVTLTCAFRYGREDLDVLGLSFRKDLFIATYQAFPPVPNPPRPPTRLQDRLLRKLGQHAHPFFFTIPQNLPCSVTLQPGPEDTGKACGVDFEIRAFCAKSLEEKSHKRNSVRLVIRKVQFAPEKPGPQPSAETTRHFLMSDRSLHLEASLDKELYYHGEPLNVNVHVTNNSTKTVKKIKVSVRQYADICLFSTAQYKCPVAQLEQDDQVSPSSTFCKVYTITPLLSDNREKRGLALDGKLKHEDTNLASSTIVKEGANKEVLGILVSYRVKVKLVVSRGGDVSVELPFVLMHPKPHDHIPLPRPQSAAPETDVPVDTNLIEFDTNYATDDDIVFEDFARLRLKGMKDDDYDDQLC
UniProt P49407: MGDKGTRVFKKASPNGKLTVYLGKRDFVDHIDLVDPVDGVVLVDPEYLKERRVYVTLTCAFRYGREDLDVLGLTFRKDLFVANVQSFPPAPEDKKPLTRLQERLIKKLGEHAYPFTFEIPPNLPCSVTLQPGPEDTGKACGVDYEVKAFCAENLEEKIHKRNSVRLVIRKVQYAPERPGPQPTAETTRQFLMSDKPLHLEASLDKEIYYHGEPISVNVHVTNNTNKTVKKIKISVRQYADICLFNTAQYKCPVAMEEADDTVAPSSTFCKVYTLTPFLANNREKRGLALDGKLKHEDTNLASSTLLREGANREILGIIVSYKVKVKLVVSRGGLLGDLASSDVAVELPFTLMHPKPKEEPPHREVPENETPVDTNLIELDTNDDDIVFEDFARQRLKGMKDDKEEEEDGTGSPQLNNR

How the values were obtained:
[1] = target: human GLP-1R with C-terminally fused ProLink1 (human) (UniProt P43220); test: split reporter; β-galactosidase enzyme fragment complementation (PathHunter) in CHO-K1 cells; agonist-induced: GIP(1-42) or tirzepatide at GIPR, GLP-1(7-36) at GLP-1R; 37°C for 90 minutes, 0.1% casein
[2] = target: mouse GLP-1R–LgBiT (mouse) (UniProt O35659); test: split reporter; NanoLuc enzyme complementation (LgBiT/SmBiT) in transiently transfected cells; reference agonist GLP-1 (repeated from the profile of Figure 1J)
[3] = target: mouse GLP-1R–LgBiT (mouse) (UniProt O35659); test: split reporter; NanoLuc enzyme complementation (LgBiT/SmBiT) in transiently transfected cells; stimulated with tirzepatide
[4] = target: mouse GLP-1R–LgBiT (mouse) (UniProt O35659); test: split reporter; NanoLuc enzyme complementation of mouse GLP-1R–LgBiT and ARRB1/2-SmBiT in transiently transfected cells; Nano-Glo substrate; stimulated with concentration series of GLP-1 or tirzepatide
[5] = target: human GLP-1R-HaloTag (human) (UniProt P43220); test: FRET or BRET; NanoBRET in transfected Freestyle HEK cells, PBS with 0.1% casein; stimulated with tirzepatide
[6] = target: human GLP-1R-HaloTag (human) (UniProt P43220); test: FRET or BRET; NanoBRET in transfected Freestyle HEK cells, PBS with 0.1% casein; reference agonist GLP-1 (repeated from the profile of Figure 1J)
[7] = target: human GLP-1R-HaloTag (human) (UniProt P43220); test: FRET or BRET; NanoBRET of NanoLuc-ARRB1/2 (donor) and human GLP-1R-HaloTag with NanoBRET 618 ligand (acceptor) in transfected Freestyle HEK cells; 1x PBS, 0.1% w/v bovine casein; stimulated with concentration series of GLP-1 or tirzepatide

Substance	binding [1]	binding [2]	binding [3]	binding [4]	binding [5]	binding [6]	binding [7]
Enzyme Acceptor fused ARRB2 (β-arrestin2) (from UniProt P32121 1-409)	binds						
ARRB2-SmBiT (from UniProt P32121 1-409)		binds	binds weakly	binds			
ARRB1-SmBiT (from UniProt P49407 1-418)		binds	binds weakly	binds			

Other lines, results leading:

binding [1]	binding [2]	binding [3]	binding [4]	binding [5]	binding [6]	binding [7]	Substance
				binds weakly	binds	binds	NanoLuc-ARRB1 (from UniProt P49407 1-418)
				binds weakly	binds	binds	NanoLuc-ARRB2 (from UniProt P32121 1-409)
